Some entries share one result that the patent states for a list of compounds.
What was measured:
Format in all cases: binding
[1] = tested on: Staphylococcus aureus (ATCC 6538)
E. coli DH5α = tested on: E. coli DH5α
[2] = tested on: Enterococcus hirae (ATCC 8043)

Q: How did the “phage recovered after binding to Staphylococcus aureus” value [1] turn out when TSITPWFFLSRP [phage 4-4-2] was run?
A: Its value is 10^5-10^6 phage recovered from one ml of bacteria.

Q: What about the “phage recovered after binding to E. coli DH5α” value (E. coli DH5α) of the same sequence?
A: The value was 10^5-10^6 phage recovered from one ml of bacteria.

Q: And the “phage recovered after binding to Enterococcus hirae” value [2]?
A: The value was 10^5-10^6 phage recovered from one ml of bacteria.
